Experimental data from the supplement of paper PMC12889115.
The other results are listed elsewhere or left out. These are raw signals, not scaled to a control.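 Primary screen: polymyxin B was added at a level permeabilizing Salmonella outer membranes while sparing inner membranes. DMSO wells, both with and without polymyxin B, established maximum growth. Plate-to-plate variation meant each plate was ranked on its own, and the lowest-OD600 compounds were selected as hits.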

Test system: Salmonella enterica serovar Typhimurium SL1344
Assay: bacterial growth OD600 after 18 h with compound and polymyxin B; higher = more bacterial growth (less inhibition)
Conditions: 50 µM, Mueller-Hinton broth

Row | Compound | bacterial growth OD600 (polymyxin B 1 µg/mL) | bacterial growth OD600 (polymyxin B 0.75 µg/mL)
1 | Cc1ccc(CN2CCC(CN(C)Cc3ccc(OC(F)F)cc3)CC2)o1 | 0.915 | 
2 | CC(=O)NCC(=O)NC1CC(=O)N(CCc2cccc(Cl)c2)C1 (configuration not stated) | 0.833 | 
3 | CN(Cc1ccncn1)C(=O)CC(c1ccccc1)c1ccccc1Cl (configuration not stated) | 1.18 | 
4 | CC(=O)NCCNC(=O)C1(N(C)Cc2ccccc2)Cc2ccccc2C1 |  | 0.623
5 | CCNC(=O)c1cn(CC(C)C)cc(C(=O)NCc2ccccc2C)c1=O |  | 0.705
6 | CN(C)C(=O)CCC(=O)N1CCCC(CCc2ccc(F)cc2F)C1 (configuration not stated) |  | 0.627
7 | COCCNC(=O)CCc1nnc(Cc2ccc(-c3ccccc3)cc2)o1 | 0.827 | 
8 | Cc1ccccc1C1(CC(=O)N2CCN(CC(=O)N(C)C)CC2)CC(=O)N(Cc2ccccc2)C1=O (configuration not stated) |  | 0.75
9 | CCc1ccc(CN2CCC(n3nccc3NC(=O)c3ccc4c(c3)OCO4)CC2)o1 |  | 0.816
10 | O=C(c1ccc(F)c(Cl)c1)N1CCC2(CCCN(CC3CC3)C2)C1 (configuration not stated) | 0.943 | 
11 | COc1cccc(CCNC2CCN(c3ccc(C(=O)NC4CCCC4)cc3)CC2)c1 |  | 0.784
12 | COc1cc(C(=O)N2CCCC(Nc3ccc(C(C)C)cc3)C2)cc(OC)c1OC (configuration not stated) | 0.592 | 
13 | Cc1nnc2ccc(SCC(=O)NC(c3ccccc3)c3ccc(Cl)cc3)nn12 (configuration not stated) |  | 0.787
14 | O=C(NCc1cccnc1N1CCOCC1)c1ncoc1C1CC1 | 1 | 
15 | O=C(Nc1ccc(-c2ccn[nH]2)cc1)C1CCCN(Cc2ccc3c(c2)CCO3)C1 (configuration not stated) |  | 0.835
16 | CN(C)c1ccc(C(=O)N2CCCN(c3ncccn3)CC2)cn1 | 1.14 | 

An excerpt from above in order of length of the SMILES, low to high.
Row | Compound | bacterial growth OD600 (polymyxin B 1 µg/mL) | bacterial growth OD600 (polymyxin B 0.75 µg/mL)
14 | O=C(NCc1cccnc1N1CCOCC1)c1ncoc1C1CC1 | 1 | 
1 | Cc1ccc(CN2CCC(CN(C)Cc3ccc(OC(F)F)cc3)CC2)o1 | 0.915 | 
8 | Cc1ccccc1C1(CC(=O)N2CCN(CC(=O)N(C)C)CC2)CC(=O)N(Cc2ccccc2)C1=O (configuration not stated) |  | 0.75

(more compounds)

Row | Compound | bacterial growth OD600 (polymyxin B 1 µg/mL) | bacterial growth OD600 (polymyxin B 0.75 µg/mL)
17 | CCS(=O)(=O)Nc1cc(C(=O)N(C)C(C)c2cccs2)c2c(c1)nc(-c1ccccc1)n2C (configuration not stated) |  | 0.006
18 | Cc1ccccc1C(=O)NC1CC(=O)N(CC2CCCCC2)C1 (configuration not stated) | 0.882 | 
19 | COC(=O)c1ccccc1C(=O)N1CCCC(Nc2ccc(C)c(C)c2)C1 (configuration not stated) | 0.736 | 
20 | Cc1ccc(CN2CCN(CC3CCCCC3)C(CCO)C2)o1 (configuration not stated) | 0.77 | 
21 | CN(CCCN1CCOCC1)C(=O)c1cc(COc2ccc(F)c(F)c2)on1 |  | 0.789
22 | COc1ccc(CC(=O)N(C)CC2CCCN(CCc3ccccc3OC)C2)cc1 (configuration not stated) |  | 0.81
23 | CC1=C(C(=O)NC2CC(=O)N(Cc3cccc4ccccc34)C2)OCCO1 (configuration not stated) | 0.902 | 
24 | COCC1CCCN(C(=O)c2ccc(N[C@H]3CC[C@H](O)CC3)nc2)C1 (some centres not stated) | 0.973 | 
25 | COc1ccc(CCCN2C(=O)O[C@@H]3CN(c4cc(OC)ncn4)C[C@@H]32)cc1 |  | 0.748
26 | COc1ccc(CCN2CC(NC(=O)C3CCCCC3)CC2=O)cc1 (configuration not stated) | 0.842 | 
27 | O=C(Nc1ccc(Oc2ccccc2F)cc1)C1CCN(CC2CC2)CC1 |  | 0.619
28 | Cc1oc(-c2cccc3ccccc23)nc1CN(C)Cc1cccc2ncccc12 |  | 0.382
29 | COc1cc(CC2(CCC(=O)NCC(c3ccccc3)c3ccccc3)CCC(=O)N2)ccc1F (configuration not stated) |  | 0.882
30 | CCn1ccnc1CN1CCCC(CCc2cccc(OC)c2)C1 (configuration not stated) |  | 0.828
31 | O=C(c1ccc(N2CCCCC2)cc1)N1CC[C@@H](N2CCC(O)CC2)[C@H](O)C1 | 1.18 | 
32 | COCc1nc2cc(NC(=O)Cc3ccccc3)cc(C(=O)NC(C)Cc3cccnc3)c2n1C (configuration not stated) |  | 0.826
